{"source": "PubChem BioAssay AID2685", "about": "(National Center for Advancing Translational Sciences (NCATS), 2010)", "note": "In all, about 320,000 compounds went through this assay and about 2,100 (0.66%) were called active. This list was built around the results that the source calls inconclusive (neither active nor inactive); the mix of calls is not that of the screen. Calls follow the shape of the dose curve; as a rule, active = well fitted inhibition curve with a large enough effect in the signal ratio, with a control signal flat (not every such curve was filed as active); inconclusive = small, poorly fitted or top-dose-only effect, or effect the other way, or a change in a side signal; inactive = flat fitted curve, though single readings scatter; the % refers to the signal ratio. Where the call is inconclusive, the potency comes from a doubtful curve fit. % is scaled to controls: 0 for no effect and ±100 for the full control effect; potency is read from the fitted curve at half-maximal effect.", "data": [{"experiment": "qHTS Assay for Lipid Storage Modulators in Drosophila S3 Cells", "details": "BODIPY lipid droplet fluorescence, 18-24 h, cells fed with added oleic acid; lipid storage change, negative = inhibition: at 46.1 µM (top of the series) unless noted", "in_short": "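Drosophila S3 cells loaded with oleic acid (400 uM, as added) and compounds at several concentrations; lipid droplets imaged by 488-nm laser-scanning cytometry, 500–530 nm intensity and object ratio to cell channel. Percent activity normalized to 20 uM Triacsin C.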", "values": [{"compound": "Cn1nnc(NC(=O)c2ccccc2F)n1", "lipid storage change, negative = inhibition": "inconclusive: -2.63%"}, {"compound": "Cc1c(CCOC(=O)C23CC4CC(CC(C)(C4)C2)C3)sc[n+]1Cc1ccccc1", "Potency": "inconclusive: 6.51 µM [cytotoxic, full curve, poor fit]"}, {"compound": "NS(=O)(=O)c1cccc(NC(=O)COC(=O)CN2C(=O)c3ccccc3C2=O)c1", "lipid storage change, negative = inhibition": "inconclusive: 15.3%"}, {"compound": "Cc1coc2cc3oc(=O)c(Cc4ccccc4)c(C)c3cc12", "lipid storage change, negative = inhibition": "inconclusive: 16.5%"}, {"compound": "C#CC(C)(C)NC(=S)NC1CC2C=CC1C2", "note": "(stereo not given)", "lipid storage change, negative = inhibition": "inconclusive: 4.27%"}, {"compound": "COc1ccc2c(c1)C(NC(C)=O)C(=O)N2CCc1ccccc1", "note": "(stereo not given)", "lipid storage change, negative = inhibition": "inconclusive: 24%"}, {"compound": "COC(=O)c1ccc(OC)c(-c2c(OC)cc(OC)cc2OC)c1", "lipid storage change, negative = inhibition": "inconclusive: 12.7%"}, {"compound": "CCOC(=O)[C@H]1[C@H]2COc3ccc(C)cc3[C@@H]2N2C(=O)CN(CC3CCCO3)C(=O)[C@@]12C", "note": "(stereo not given in full)", "lipid storage change, negative = inhibition": "inconclusive: 15.1%"}, {"compound": "CCc1cc(=O)oc2cc(OCC(=O)N3CCC(C(N)=O)CC3)ccc12", "Potency": "inconclusive: 3.26 µM [activator, partial curve]"}, {"compound": "COc1ccc(-c2ccc(=O)n(CC(=O)NCc3ccco3)n2)cc1", "lipid storage change, negative = inhibition": "inconclusive: -37% [at 0.0737 µM]"}, {"compound": "CCN1C(=O)C2C(c3cccc(F)c3)NC(C)(C(=O)OC)C2C1=O", "note": "(stereo not given)", "Potency": "inconclusive: 29.1 µM [falling, single point]"}, {"compound": "COCCCn1c(C(=O)NCCC2=CCCCC2)cc2c(=O)n3ccccc3nc21", "Potency": "inconclusive: 5.8 µM [falling, single point]"}, {"compound": "CCn1c(=O)c2sccc2n(Cc2cc(C(=O)OC)ccc2OC)c1=O", "lipid storage change, negative = inhibition": "inconclusive: -9.52%"}, {"compound": "O=C(c1ccc(OC2CCN(Cc3cccc(F)c3)CC2)cc1)N1CCCCC1", "lipid storage change, negative = inhibition": "inconclusive: 14.6%"}, {"compound": "COC(=O)c1cc(C(=O)Nc2ccc(S(=O)(=O)NC(C)(C)C)cc2)cc([N+](=O)[O-])c1", "lipid storage change, negative = inhibition": "inconclusive: -16.3%"}, {"compound": "COc1ccc(C(=O)NC(=S)Nc2nnn(C)n2)cc1", "lipid storage change, negative = inhibition": "inconclusive: 7.87%"}, {"compound": "CCC1(C)SC(NC(C)=O)=NN1C(C)=O", "note": "(stereo not given)", "lipid storage change, negative = inhibition": "inconclusive: -38.4%"}, {"compound": "CCN(CC(=O)Nc1c(F)cccc1F)C(=O)c1cnccn1", "Potency": "inconclusive: 6.51 µM [activator, single point]"}, {"compound": "COC(=O)C1=COC(C)C2CN3CCc4c([nH]c5cc(OC)c(OC)cc45)C3CC12", "note": "(stereo not given)", "Potency": "inconclusive: 13 µM [falling, partial curve, poor fit]"}, {"compound": "COc1ccc(CCC(=O)Nc2sccc2C#N)cc1", "lipid storage change, negative = inhibition": "inconclusive: 32.3%"}, {"compound": "CCCCn1c(N)c(Sc2ccc(Cl)cc2)c(=O)[nH]c1=O", "lipid storage change, negative = inhibition": "inconclusive: 34.3%"}, {"compound": "Cc1cc(C(=O)OCC(=O)Nc2cccc(S(=O)(=O)N3CCOCC3)c2)c(C)o1", "lipid storage change, negative = inhibition": "inconclusive: 196%"}, {"compound": "CN1CCN(CC#CCC2(O)c3ccccc3-c3ccccc32)CC1", "lipid storage change, negative = inhibition": "inconclusive: 6.42%"}, {"compound": "Cc1ccc2nc(Cl)c(/C=N/NC(=O)c3ccccc3O)cc2c1", "lipid storage change, negative = inhibition": "inconclusive: 1.66%"}, {"compound": "Cn1c(N)c(C(=O)CN2CCc3ccccc3C2)c(=O)n(C)c1=O", "lipid storage change, negative = inhibition": "inconclusive: -1.15%"}, {"compound": "COCCn1c(SCC(=O)NC2CCCC2)nc2c(c1=O)SCC2", "lipid storage change, negative = inhibition": "inconclusive: -0.434%"}, {"compound": "CC1c2cccn2CCN1S(=O)(=O)c1ccc(F)cc1", "note": "(stereo not given)", "Potency": "inconclusive: 16.4 µM [falling, single point]"}, {"compound": "O=C(Nc1nnc(-c2ccc(F)cc2)s1)c1ccco1", "lipid storage change, negative = inhibition": "inconclusive: -107%"}, {"compound": "COc1c(C(C)C)oc2cc3oc(=O)ccc3cc12", "lipid storage change, negative = inhibition": "inconclusive: 2.62%"}, {"compound": "O=C(N/N=C\\c1cccc(OC(=O)c2ccco2)c1)c1ccc2c(c1)OCO2", "Potency": "inconclusive: 0.651 µM [activator, full curve]"}, {"compound": "COc1ccccc1NC(=O)COC(=O)c1c[nH]c(=O)[nH]c1=O", "lipid storage change, negative = inhibition": "inconclusive: -24.4%"}, {"compound": "Cc1ccc(C2C3=C(CC(C)(C)CC3=O)N(CCN3CCOCC3)C3=C2C(=O)CC(C)(C)C3)cc1", "lipid storage change, negative = inhibition": "inconclusive: 9.71%"}, {"compound": "COc1ccc(OCC(=O)Nc2cccc(C(C)=O)c2)cc1", "Potency": "inconclusive: 32.6 µM [activator, single point]"}, {"compound": "O=C(NCc1ccccc1CN1CCCC1)c1cc2cc(Cl)ccc2o1", "lipid storage change, negative = inhibition": "inconclusive: 1.5%"}, {"compound": "O=C(CCCOc1ccccc1)Nc1cccc(S(=O)(=O)N2CCCCC2)c1", "lipid storage change, negative = inhibition": "inconclusive: 20.3%"}, {"compound": "O=C(C[C@H]1C(=O)N(CCc2ccccc2)C[C@@H]1Cc1ccccc1)Nc1ccccc1", "lipid storage change, negative = inhibition": "inconclusive: -73.9%"}, {"compound": "CCN(CC)C(=O)NC(c1ccc(C)c(F)c1)C(Cl)(Cl)Cl", "note": "(stereo not given)", "lipid storage change, negative = inhibition": "inconclusive: 2.21%"}, {"compound": "CSc1cc(C)c(OCC(=O)Nc2ccc(NC(C)=O)cc2)c(C)c1", "lipid storage change, negative = inhibition": "inconclusive: 35.5%"}, {"compound": "S=C1NC(c2cccs2)=CC(c2ccc(Br)cc2)N1", "note": "(stereo not given)", "lipid storage change, negative = inhibition": "inconclusive: 22.8%"}, {"compound": "N/C(COc1ccccc1)=N\\NS(=O)(=O)c1ccccc1", "lipid storage change, negative = inhibition": "inconclusive: -19.8%"}]}]}
